Measured values published in PMC11024185.
Results are given in words; binding and its absence hold for the method and conditions named. In cells and extracts the contact can be indirect. These calls come from enrichment with a bait or labelling near it, and not all partners need be listed. For some assays here: Sequences can lack the tags named with a protein.

Protein sequences, listed by entry. Tags and fused reporters are not part of them.
UniProt P14126: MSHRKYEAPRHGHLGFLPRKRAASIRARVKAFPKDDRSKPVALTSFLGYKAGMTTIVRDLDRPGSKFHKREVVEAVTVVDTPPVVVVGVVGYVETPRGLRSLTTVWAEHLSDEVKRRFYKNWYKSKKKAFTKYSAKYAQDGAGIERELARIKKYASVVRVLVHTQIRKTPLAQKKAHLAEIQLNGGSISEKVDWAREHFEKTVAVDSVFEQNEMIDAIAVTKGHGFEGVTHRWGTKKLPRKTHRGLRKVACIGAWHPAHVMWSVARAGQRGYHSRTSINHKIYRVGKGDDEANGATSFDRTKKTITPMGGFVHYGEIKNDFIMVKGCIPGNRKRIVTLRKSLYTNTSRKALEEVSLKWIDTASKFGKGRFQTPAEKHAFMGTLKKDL
UniProt Q06205: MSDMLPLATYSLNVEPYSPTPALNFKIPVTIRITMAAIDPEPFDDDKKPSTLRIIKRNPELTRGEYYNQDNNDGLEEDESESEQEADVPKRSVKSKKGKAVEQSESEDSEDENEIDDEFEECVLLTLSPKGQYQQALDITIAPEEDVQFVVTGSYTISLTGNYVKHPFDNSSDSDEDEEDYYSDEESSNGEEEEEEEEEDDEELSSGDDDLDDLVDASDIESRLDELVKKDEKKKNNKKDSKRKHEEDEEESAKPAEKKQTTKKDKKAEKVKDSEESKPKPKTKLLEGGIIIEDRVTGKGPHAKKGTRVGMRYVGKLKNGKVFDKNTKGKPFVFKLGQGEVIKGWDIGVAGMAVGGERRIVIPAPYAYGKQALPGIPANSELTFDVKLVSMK
UniProt Q03532: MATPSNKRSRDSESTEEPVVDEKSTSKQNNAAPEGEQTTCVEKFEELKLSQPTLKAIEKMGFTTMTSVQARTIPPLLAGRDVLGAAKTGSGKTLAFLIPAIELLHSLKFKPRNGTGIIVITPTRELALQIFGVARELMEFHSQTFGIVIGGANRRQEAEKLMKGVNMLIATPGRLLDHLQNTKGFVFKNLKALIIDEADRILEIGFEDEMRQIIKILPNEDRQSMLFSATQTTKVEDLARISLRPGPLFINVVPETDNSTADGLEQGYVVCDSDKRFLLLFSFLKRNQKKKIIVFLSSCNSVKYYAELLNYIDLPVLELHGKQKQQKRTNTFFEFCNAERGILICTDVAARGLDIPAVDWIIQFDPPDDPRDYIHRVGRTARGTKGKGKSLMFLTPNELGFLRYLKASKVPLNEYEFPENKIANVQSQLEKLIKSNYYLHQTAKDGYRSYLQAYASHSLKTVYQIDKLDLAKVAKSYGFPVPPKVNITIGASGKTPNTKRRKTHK
UniProt P40007: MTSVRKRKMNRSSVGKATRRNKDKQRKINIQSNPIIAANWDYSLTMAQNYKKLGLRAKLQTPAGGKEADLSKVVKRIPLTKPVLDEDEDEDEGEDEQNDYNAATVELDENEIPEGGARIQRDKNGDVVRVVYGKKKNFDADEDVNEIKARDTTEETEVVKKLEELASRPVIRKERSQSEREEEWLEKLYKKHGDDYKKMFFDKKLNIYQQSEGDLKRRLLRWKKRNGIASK

Key:
[1] = molecular target: T1, Ssf1-3xFLAG-3C-2xProteinA (S. cerevisiae) (UniProt P38789); assay: affinity purification with mass spectrometry; split-tag purification of pre-60S particles from yeast overexpressing dbp10 R522V (β-estradiol, 1 h): IgG Sepharose on Ssf1-2xProteinA, 3C cleavage, then Strep-Tactin on Dbp10 R522V, bdNEDD8 protease elution; 50 mM Bis-Tris-Propane pH 8.0, 125 mM NaCl, 25 mM KCl, 10 mM MgCl2; Coomassie-stained 4-20% SDS-PAGE, bands named by molecular weight, ambiguous bands by mass spectrometry
T1 sequence: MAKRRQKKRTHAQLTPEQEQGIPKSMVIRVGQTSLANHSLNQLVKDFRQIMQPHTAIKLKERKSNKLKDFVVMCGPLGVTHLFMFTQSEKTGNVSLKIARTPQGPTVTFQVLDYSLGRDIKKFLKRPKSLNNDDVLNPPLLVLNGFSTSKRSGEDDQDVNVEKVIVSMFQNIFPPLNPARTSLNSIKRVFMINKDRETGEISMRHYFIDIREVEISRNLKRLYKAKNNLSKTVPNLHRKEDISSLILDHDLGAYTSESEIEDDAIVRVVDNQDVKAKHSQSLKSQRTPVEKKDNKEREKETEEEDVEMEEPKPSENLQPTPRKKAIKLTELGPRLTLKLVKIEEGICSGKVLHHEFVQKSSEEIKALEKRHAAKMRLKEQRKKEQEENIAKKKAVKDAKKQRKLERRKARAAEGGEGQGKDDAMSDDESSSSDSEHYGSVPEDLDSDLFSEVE

[2] = molecular target: T2, Dbp10 R522V (sfGFP-3xSTREP-bdNEDD8-MYC-dbp10 R522V) (S. cerevisiae) (UniProt Q12389); assay: as above
T2 sequence: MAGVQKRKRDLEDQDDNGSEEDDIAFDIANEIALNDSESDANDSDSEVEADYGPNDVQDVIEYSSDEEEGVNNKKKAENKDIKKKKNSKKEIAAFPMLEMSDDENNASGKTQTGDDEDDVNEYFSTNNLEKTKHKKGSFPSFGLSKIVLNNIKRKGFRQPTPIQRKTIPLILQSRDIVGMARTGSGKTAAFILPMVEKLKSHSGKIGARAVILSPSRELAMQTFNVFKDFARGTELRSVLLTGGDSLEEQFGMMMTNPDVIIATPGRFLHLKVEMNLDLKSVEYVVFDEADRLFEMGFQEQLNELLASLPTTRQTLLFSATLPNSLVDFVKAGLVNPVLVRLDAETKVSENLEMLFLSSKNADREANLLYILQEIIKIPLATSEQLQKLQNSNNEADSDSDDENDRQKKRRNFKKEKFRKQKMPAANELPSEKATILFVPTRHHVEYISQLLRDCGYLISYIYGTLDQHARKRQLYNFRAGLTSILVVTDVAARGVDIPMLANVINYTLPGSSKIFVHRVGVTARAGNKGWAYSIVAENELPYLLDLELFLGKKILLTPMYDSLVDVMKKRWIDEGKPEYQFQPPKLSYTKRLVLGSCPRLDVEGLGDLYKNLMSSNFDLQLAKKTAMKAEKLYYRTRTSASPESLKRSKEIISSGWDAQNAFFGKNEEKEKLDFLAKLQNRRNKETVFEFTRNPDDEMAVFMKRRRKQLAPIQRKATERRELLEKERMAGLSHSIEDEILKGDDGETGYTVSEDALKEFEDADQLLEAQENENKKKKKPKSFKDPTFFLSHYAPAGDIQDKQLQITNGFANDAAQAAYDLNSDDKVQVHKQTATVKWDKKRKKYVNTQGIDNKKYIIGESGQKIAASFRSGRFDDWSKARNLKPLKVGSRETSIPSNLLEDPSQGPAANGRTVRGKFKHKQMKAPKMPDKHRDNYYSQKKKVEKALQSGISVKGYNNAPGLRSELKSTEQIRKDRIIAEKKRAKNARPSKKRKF

[3] = molecular target: T1, Ssf1-3xFLAG-3C-2xProteinA (S. cerevisiae); assay: affinity purification with mass spectrometry; purification of pre-60S intermediates from a drs1 R569Q strain by tags on Drs1 R569Q (3x-Strep) and Ssf1 (2x-ProtA); Coomassie-stained 4-20% SDS-PAGE
[4] = molecular target: T3, Drs1 R569Q (3x-Strep-Drs1 R569Q) (S. cerevisiae) (UniProt P32892); assay: as above
T3 sequence: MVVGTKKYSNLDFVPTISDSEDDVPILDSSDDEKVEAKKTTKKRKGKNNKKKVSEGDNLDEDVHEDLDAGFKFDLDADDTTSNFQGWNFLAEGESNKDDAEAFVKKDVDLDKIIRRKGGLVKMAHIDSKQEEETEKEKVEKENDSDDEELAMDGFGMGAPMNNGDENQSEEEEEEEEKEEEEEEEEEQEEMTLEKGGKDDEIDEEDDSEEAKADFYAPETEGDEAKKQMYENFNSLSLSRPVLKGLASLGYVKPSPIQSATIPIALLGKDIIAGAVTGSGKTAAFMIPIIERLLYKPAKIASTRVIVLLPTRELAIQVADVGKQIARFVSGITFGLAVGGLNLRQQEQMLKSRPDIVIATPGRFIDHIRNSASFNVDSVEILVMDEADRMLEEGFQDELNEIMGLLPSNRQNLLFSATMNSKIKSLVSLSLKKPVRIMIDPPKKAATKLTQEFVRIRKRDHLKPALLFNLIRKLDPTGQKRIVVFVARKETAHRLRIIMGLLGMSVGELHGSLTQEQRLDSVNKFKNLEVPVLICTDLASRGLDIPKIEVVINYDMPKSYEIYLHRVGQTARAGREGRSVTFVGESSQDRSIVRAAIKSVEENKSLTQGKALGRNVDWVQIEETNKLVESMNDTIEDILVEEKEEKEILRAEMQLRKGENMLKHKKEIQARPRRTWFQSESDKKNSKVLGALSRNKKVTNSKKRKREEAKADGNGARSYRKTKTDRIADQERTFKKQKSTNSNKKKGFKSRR

Measured: binding

uL3 (from UniProt P14126 1-387)
binds: all assays above

uL4 (S. cerevisiae (endogenous in yeast))
binds: all assays above

Fpr4 (from UniProt Q06205 1-392)
binds: all assays above

Has1 (from UniProt Q03532 1-505) (enzyme)
binds: all assays above

Nop16 (from UniProt P40007 1-231)
binds: all assays above

B1: Ytm1 (protein, UniProt Q12024 1-460)
chain: MTEDKSQVKIRFFTREKDELLHVQDTPMYAPISLKRYGLSEIVNHLLGSEKPVPFDFLIEGELLRTSLHDYLTKKGLSSEASLNVEYTRAILPPSYLNSFSNEDWVSSLDVGDGSKHIISGSYDGIVRTWDLSGNVQKQYSGHSGPIRAVKYISNTRLVSAGNDRTLRLWKTKNDDLKLTSQQQAQEDDDDEVNIEDGKTLAILEGHKAPVVSIDVSDNSRILSASYDNSIGFWSTIYKEMTVVDPLEDINNPNNKISTAARKRRKLTMKDGTIRRRAPLSLLESHTAPVEQVIFDSTDNTVGYSVSQDHTIKTWDLVTARCIDTRTTSYSLLSIAQLSTLNLLACGSSARHITLHDPRVGASSKVTQQQLIGHKNFVSSLDTCPENEYILCSGSHDGTVKVWDVRSTSPMYTITREDKSVQKGVNDKVFAVKWAEKVGIISAGQDKKIQINKGDNIFKN
binds: all assays above

B2: Mak16 (protein, UniProt P10962 1-306)
chain: MSDEIVWQVINQSFCSHRIKAPNGQNFCRNEYNVTGLCTRQSCPLANSKYATVKCDNGKLYLYMKTPERAHTPAKLWERIKLSKNYTKALQQIDEHLLHWSKFFRHKCKQRFTKLTQVMITERRLALREEERHYVGVAPKVKRREQNRERKALVAAKIEKAIEKELMDRLKSGAYGDKPLNVDEKVWKKIMGQMEEENSQDEEEDWDEEEESDDGEVEYVADDGEGEYVDVDDLEKWLADSDREASSASESESDSESESDSDSDEENKNSAKRRKKGTSAKTKRPKVEIEYEEEHEVQNAEQEVAQ
binds: all assays above

B3: Rpf2 (protein, UniProt P36160 1-344)
chain: MIRTVKPKNARAKRALVKREAKLVENVKQALFIPGQSCNKNLHDIMVDLSALKKPDMKRFNRKNDIHPFEDMSPLEFFSEKNDCSLMVLMTSSKKRKNNMTFIRTFGYKIYDMIELMVADNFKLLSDFKKLTFTVGLKPMFTFQGAAFDTHPVYKQIKSLFLDFFRGESTDLQDVAGLQHVISMTIQGDFQDGEPLPNVLFRVYKLKSYKSDQGGKRLPRIELVEIGPRLDFKIGRIHTPSPDMVTEAHKKPKQLEMKTKKNVELDIMGDKLGRIHMGKQDLGKLQTRKMKGLKSKFDQGTEEGDGEVDEDYEDEASYSDDGQEYEEEFVSATDIEPSAKRQKK
binds: all assays above

B4: Erb1 (protein, UniProt Q04660 1-807)
chain: MMAKNNKTTEAKMSKKRAASEESDVEEDEDKLLSVDGLIDAEASESDEDDDEYESAVEEKESSSDKEAQDDSDDDSDAELNKLLAEEEGDGEEDYDSSEFSDDTTSLTDRLSGVKLQTIVDPNIYSKYADGSDRIIKPEINPVYDSDDSDAETQNTIGNIPLSAYDEMPHIGYDINGKRIMRPAKGSALDQLLDSIELPEGWTGLLDKNSGSSLNLTKEELELISKIQRNEQTDDSINPYEPLIDWFTRHEEVMPLTAVPEPKRRFVPSKNEAKRVMKIVRAIREGRIIPPKKLKEMKEKEKIENYQYDLWGDSTETNDHVMHLRAPKLPPPTNEESYNPPEEYLLSPEEKEAWENTEYSERERNFIPQKYSALRKVPGYGESIRERFERSLDLYLAPRVRKNKLNIDPNSLIPELPSPKDLRPFPIRCSTIYAGHKGKVRTLSIDPSGLWLATGSDDGTVRVWEILTGREVYRTTLIDDEENPDYHIECIEWNPDANNGILAVAVGENIHLIVPPIFGYDIENNGKTKIEDGFGYDTFGTVKKSNLEVNENGDGDEDGENESAKNAVKKQVAQWNKPSQKQLEKDICITISCKKTVKKLSWHRKGDYFVTVQPDSGNTSVLIHQVSKHLTQSPFKKSKGIIMDAKFHPFKPQLFVCSQRYVRIYDLSQQILVKKLLPGARWLSKIDIHPRGDNLIASSFDKRVLWHDLDLASTPYKTLRYHEKAVRSVNFHKKLPLFSSAADDGTIHVFHATVYDDMMKNPMIVPLKKLTGHKVINSLGVLDAIWHPREAWLFSAGADNTARLWTT
binds: [1] | [2] | [3]

B5: Nop7 (protein, UniProt P53261 1-605)
chain: MRIKKKNTRGNARNFITRSQAVRKLQVSLADFRRLCIFKGIYPREPRNKKKANKGSTAPTTFYYAKDIQYLMHEPVLAKFREHKTFARKLTRALGRGEVSSAKRLEENRDSYTLDHIIKERYPSFPDAIRDIDDALNMLFLFSNLPSTNQVSSKIINDAQKICNQWLAYVAKERLVRKVFVSIKGVYYQANIKGEEVRWLVPFKFPENIPSDVDFRIMLTFLEFYSTLLHFVLYKLYTDSGLIYPPKLDLKKDKIISGLSSYILESRQEDSLLKLDPTEIEEDVKVESLDASTLKSALNADEANTDETEKEEEQEKKQEKEQEKEQNEETELDTFEDNNKNKGDILIQPSKYDSPVASLFSAFVFYVSREVPIDILEFLILSCGGNVISEAAMDQIENKKDIDMSKVTHQIVDRPVLKNKVAGRTYIQPQWIFDCINKGELVPANKYLPGEALPPHLSPWGDAIGYDPTAPVEEGEEEESESESESEDQVEEEDQEVVAGEEDDDDDEELQAQKELELEAQGIKYSETSEADKDVNKSKNKKRKVDEEEEEKKLKMIMMSNKQKKLYKKMKYSNAKKEEQAENLKKKKKQIAKQKAKLNKLDSKK
binds: [1] | [2] | [3]
